# Literature values in patent US12527845B2, “Formulations” (Arecor Limited, priority 2016, dated 2026).
# For at least one compound, name, drawing or mass did not settle the structure.
# Conditions: 25° C.
smiles,measurement,value
N[C@@H](CC(=O)O)C(=O)O [aspartate],log K with respect to zinc ion binding,5.87
